The values that follow come from PMC8976005.

In this assay the target is ATP6V1B. As to the kind of experiment: co-IP; HEK293T cells 24-36 h after transfection, lysed in BLB lysis buffer or IP buffer (0.5% NP-40, 150 mM NaCl, 50 mM Tris-HCl, pH 7.5); anti-FLAG or anti-HA beads overnight at 4 °C; immunoblot. A general note: Immunoblotting shows a protein as a band on a membrane.

These are yes or no findings as the source states them, for the method shown. In cells and extracts the contact can be indirect. Binding calls can cover weak binding; strength is not graded here.

B1: STK11IP (protein, UniProt Q8N1F8 1-1088)
chain: MTTAQRDSLLWKLAGLLRESGDVVLSGCSTLSLLTPTLQQLNHVFELHLGPWGPGQTGFVALPSHPADSPVILQLQFLFDVLQKTLSLKLVHVAGPGPTGPIKIFPFKSLRHLELRGVPLHCLHGLRGIYSQLETLICSRSLQALEELLSACGGDFCSALPWLALLSANFSYNALTALDSSLRLLSALRFLNLSHNQVQDCQGFLMDLCELHHLDISYNRLHLVPRMGPSGAALGVLILRGNELRSLHGLEQLRNLRHLDLAYNLLEGHRELSPLWLLAELRKLYLEGNPLWFHPEHRAATAQYLSPRARDAATGFLLDGKVLSLTDFQTHTSLGLSPMGPPLPWPVGSTPETSGGPDLSDSLSSGGVVTQPLLHKVKSRVRVRRASISEPSDTDPEPRTLNPSPAGWFVQQHPELELMSSFRERFGRNWLQYRSHLEPSGNPLPATPTTSAPSAPPASSQGPDTAPRPSPPQEEARGPQESPQKMSEEVRAEPQEEEEEKEGKEEKEEGEMVEQGEEEAGEEEEEEQDQKEVEAELCRPLLVCPLEGPEGVRGRECFLRVTSAHLFEVELQAARTLERLELQSLEAAEIEPEAQAQRSPRPTGSDLLPGAPILSLRFSYICPDRQLRRYLVLEPDAHAAVQELLAVLTPVTNVAREQLGEARDLLLGRFQCLRCGHEFKPEEPRMGLDSEEGWRPLFQKTESPAVCPNCGSDHVVLLAVSRGTPNRERKQGEQSLAPSPSASPVCHPPGHGDHLDRAKNSPPQAPSTRDHGSWSLSPPPERCGLRSVDHRLRLFLDVEVFSDAQEEFQCCLKVPVALAGHTGEFMCLVVVSDRRLYLLKVTGEMREPPASWLQLTLAVPLQDLSGIELGLAGQSLRLEWAAGAGRCVLLPRDARHCRAFLEELLDVLQSLPPAWRNCVSATEEEVTPQHRLWPLLEKDSSLEARQFFYLRAFLVEGPSTCLVSLLLTPSTLFLLDEDAAGSPAEPSPPAASGEASEKVPPSGPGPAVRVREQQPLSSLSSVLLYRSAPEDLRLLFYDEVSRLESFWALRVVCQEQLTALLAWIREPWEELFSIGLRTVIQEALALDR
Turning to B1, the binding result is reported as “binds”.

B2: S404A-STK11IP (protein, UniProt Q8N1F8 1-1088)
chain: MTTAQRDSLLWKLAGLLRESGDVVLSGCSTLSLLTPTLQQLNHVFELHLGPWGPGQTGFVALPSHPADSPVILQLQFLFDVLQKTLSLKLVHVAGPGPTGPIKIFPFKSLRHLELRGVPLHCLHGLRGIYSQLETLICSRSLQALEELLSACGGDFCSALPWLALLSANFSYNALTALDSSLRLLSALRFLNLSHNQVQDCQGFLMDLCELHHLDISYNRLHLVPRMGPSGAALGVLILRGNELRSLHGLEQLRNLRHLDLAYNLLEGHRELSPLWLLAELRKLYLEGNPLWFHPEHRAATAQYLSPRARDAATGFLLDGKVLSLTDFQTHTSLGLSPMGPPLPWPVGSTPETSGGPDLSDSLSSGGVVTQPLLHKVKSRVRVRRASISEPSDTDPEPRTLNPAPAGWFVQQHPELELMSSFRERFGRNWLQYRSHLEPSGNPLPATPTTSAPSAPPASSQGPDTAPRPSPPQEEARGPQESPQKMSEEVRAEPQEEEEEKEGKEEKEEGEMVEQGEEEAGEEEEEEQDQKEVEAELCRPLLVCPLEGPEGVRGRECFLRVTSAHLFEVELQAARTLERLELQSLEAAEIEPEAQAQRSPRPTGSDLLPGAPILSLRFSYICPDRQLRRYLVLEPDAHAAVQELLAVLTPVTNVAREQLGEARDLLLGRFQCLRCGHEFKPEEPRMGLDSEEGWRPLFQKTESPAVCPNCGSDHVVLLAVSRGTPNRERKQGEQSLAPSPSASPVCHPPGHGDHLDRAKNSPPQAPSTRDHGSWSLSPPPERCGLRSVDHRLRLFLDVEVFSDAQEEFQCCLKVPVALAGHTGEFMCLVVVSDRRLYLLKVTGEMREPPASWLQLTLAVPLQDLSGIELGLAGQSLRLEWAAGAGRCVLLPRDARHCRAFLEELLDVLQSLPPAWRNCVSATEEEVTPQHRLWPLLEKDSSLEARQFFYLRAFLVEGPSTCLVSLLLTPSTLFLLDEDAAGSPAEPSPPAASGEASEKVPPSGPGPAVRVREQQPLSSLSSVLLYRSAPEDLRLLFYDEVSRLESFWALRVVCQEQLTALLAWIREPWEELFSIGLRTVIQEALALDR
In the case of B2, the binding entry is “binds”.
